Measured values: US8465780B2, “Borate micro emulsion and method for making the same” (Nisus Corporation, priority 2006, dated 2013)
Like-named read-outs stand apart in the source and are kept apart here.

Experiments:
[1] = 0.25 weight % solution, two weeks
[2] = 0.05 weight % borate, lithium hypochlorite, bright sunlight

## O.O.O.O.O=BOB1OB(OB=O)OB2OB([O-])OB([O-])OB(O1)O2.[Na+].[Na+] [disodium octaborate tetrahydrate]
[1]
  appearance of solution after nail exposure: clear and free of corrosion by-products
  corrosion of steel nail: free of significant corrosion
[2]; 0 hr
  free chlorine concentration: 10 ppm
[2]; 1.5 hr
  free chlorine concentration: 1.0 ppm
[2]; 2.5 hr
  free chlorine concentration: 0.5 ppm

## OB(O)O [boric acid, reference compound]
[1]
  appearance of solution after nail exposure: turned brown
  corrosion of steel nail: significantly corroded
